doi:10.1101/2024.10.14.618219
Results are given in words; binding and its absence hold for the method and conditions named. Some results given as binding are weak or reduced against the parent protein; the word gives no strength.

The chains behind the UniProt entries cited, without tags or fusion partners.
UniProt Q9Y496, whole entry: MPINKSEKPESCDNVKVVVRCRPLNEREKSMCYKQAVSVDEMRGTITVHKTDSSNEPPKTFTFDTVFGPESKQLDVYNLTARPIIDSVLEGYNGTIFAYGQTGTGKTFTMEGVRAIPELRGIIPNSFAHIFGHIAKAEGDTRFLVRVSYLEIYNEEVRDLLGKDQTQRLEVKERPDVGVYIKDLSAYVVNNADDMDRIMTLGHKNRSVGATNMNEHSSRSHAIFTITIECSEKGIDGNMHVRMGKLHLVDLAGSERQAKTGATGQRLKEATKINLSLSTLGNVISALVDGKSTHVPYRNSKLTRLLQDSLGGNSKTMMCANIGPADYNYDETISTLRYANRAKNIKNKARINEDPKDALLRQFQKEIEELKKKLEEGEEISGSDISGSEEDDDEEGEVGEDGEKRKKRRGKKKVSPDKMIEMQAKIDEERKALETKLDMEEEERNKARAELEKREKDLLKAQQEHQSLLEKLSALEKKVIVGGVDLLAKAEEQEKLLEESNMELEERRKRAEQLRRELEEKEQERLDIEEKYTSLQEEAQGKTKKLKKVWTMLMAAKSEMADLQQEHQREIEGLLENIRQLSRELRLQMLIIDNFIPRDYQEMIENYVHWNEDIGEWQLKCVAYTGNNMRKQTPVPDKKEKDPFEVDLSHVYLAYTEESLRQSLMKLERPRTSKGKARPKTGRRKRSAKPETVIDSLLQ

Tests used:
[1] = biological target: T1, Kif3B (human) (UniProt O15066); experiment: SEC
T1 sequence: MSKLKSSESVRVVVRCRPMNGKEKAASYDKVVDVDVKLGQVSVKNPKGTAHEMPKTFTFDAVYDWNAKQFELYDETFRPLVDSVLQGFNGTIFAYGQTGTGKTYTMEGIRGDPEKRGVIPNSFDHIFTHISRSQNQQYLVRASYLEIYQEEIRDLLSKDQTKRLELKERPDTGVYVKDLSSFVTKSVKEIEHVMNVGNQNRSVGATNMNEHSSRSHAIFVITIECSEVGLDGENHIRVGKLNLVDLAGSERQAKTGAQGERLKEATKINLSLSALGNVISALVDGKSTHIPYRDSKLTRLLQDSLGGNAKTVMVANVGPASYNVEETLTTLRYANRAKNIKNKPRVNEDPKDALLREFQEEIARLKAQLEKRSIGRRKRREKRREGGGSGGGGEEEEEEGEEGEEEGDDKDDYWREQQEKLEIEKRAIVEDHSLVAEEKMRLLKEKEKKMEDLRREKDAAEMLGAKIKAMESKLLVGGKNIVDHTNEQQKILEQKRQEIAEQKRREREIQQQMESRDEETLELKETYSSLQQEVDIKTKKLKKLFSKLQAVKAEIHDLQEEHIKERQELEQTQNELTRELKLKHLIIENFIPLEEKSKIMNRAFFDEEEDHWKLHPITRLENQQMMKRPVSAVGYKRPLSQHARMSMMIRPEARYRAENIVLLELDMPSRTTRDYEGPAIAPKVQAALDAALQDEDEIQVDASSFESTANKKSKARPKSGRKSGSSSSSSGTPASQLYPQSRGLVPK

[2] = biological target: T1, Kif3B (human); experiment: mass photometry

binding [1]: binds | binding [2]: binds
Substance: Kif3A (from UniProt Q9Y496 1-699)
